Measured values published in PMC4698393.
The exact form of at least one protein or probe is not confirmed. For some of these results: A negative result means that nothing was seen under these conditions.

Assays:
GST-Nrf2 + His-MafG [1] = assay: EMSA; conditions: dose-dependent increase with GST-Nrf2; EMSA binding buffer as previously described (ref 21; composition, salt and pH not given); Nrf2/MafG preincubated 30 min at room temperature; recombinant protein; protein details: GST (N-term, pGEX5x-1),His
GST-Nrf2 = assay: EMSA; conditions: Nrf2 alone; EMSA binding buffer as previously described (ref 21; composition, salt and pH not given); Nrf2/MafG preincubated 30 min at room temperature; recombinant protein; protein details: GST (N-term, pGEX5x-1)
His-MafG = assay: EMSA; conditions: MafG alone (homodimer); EMSA binding buffer as previously described (ref 21; composition, salt and pH not given); Nrf2/MafG preincubated 30 min at room temperature; recombinant protein; protein details: His
GST-Nrf2 + His-MafG [2] = assay: competition with a labelled probe; conditions: excess cold HepcARE diminished binding to labeled HepcARE; EMSA binding buffer as previously described (ref 21; composition, salt and pH not given); Nrf2/MafG preincubated 30 min at room temperature; recombinant protein; protein details: GST (N-term, pGEX5x-1),His

## CTAGCGAATTCAACATCCCCGGGCTCTGGTGACTTGGCTGACACTGC / TCGAGCAGTGTCAGCCAAGTCACCAGAGCCCGGGGATGTTGAATTCG [HepcARE]
GST-Nrf2 + His-MafG [1]
  binding result: binds
GST-Nrf2
  binding result: no binding
His-MafG
  binding result: binds
GST-Nrf2 + His-MafG [2]
  binding result: binds
